Drawing on PMC5996148, this text covers binding signal for one sequence.

Several values for one entry are separate records, joined by “and”; a condition that tells them apart may be missing. Identical values can stand only once. The list shows a part of the results.

What all share (assay): protein microarray (ProtoArray v5.0), streptavidin-Alexa Fluor 647
What all share (settings): 3'-biotin; 20 mM Tris (pH 7.5), 5 mM MgCl2, 100 mM KCl, 0.1% Tween-20, A/T-rich and random oligonucleotide blockers; temperature not stated; high values mean tight binding

Experiment [1] concerns MAPRE2 (human).
Experiment [2] has as its system MARVELD2 (human).
Experiment [3] relates to MASP2 (human).
Experiment [4] concerns MAT1A (human).
The test system of experiment [5] is MAT2B (human).
Experiment [6] has as its system MCEE (human).
Experiment [7] has as its system MCFD2 (human).
Experiment [8] concerns MCM2 (human).
Experiment [9] has as its system MCM6 (human).
Experiment [10] concerns MCM7 (human).
Experiment [11] relates to MDP-1 (human).
Experiment [12] deals with ME1 (human).
The test system of experiment [13] is MED21 (human).
For experiment [14], the system named is MED24 (human).
In experiment [15] the test system is MED27 (human).
In experiment [16] the test system is MED28 (human).
The subject of experiment [17] is MED30 (human).
For experiment [18], the system named is MEF2B (human).
For experiment [19], the system named is MEIS2 (human).
The test system of experiment [20] is MEIS3 (human).

Consider “GGGAGGCTGAGGCAGG [G4-1 biotinylated (PQS2)]”, for which the binding signal is -0.326 z-score in experiment [1]; -0.338 z-score in [2]; -0.316 z-score in [3]; -0.331 z-score in experiment [4]; -0.337 z-score in [5]; -0.316 z-score in [6]. Also, the binding signal in experiment [7] was -0.348 z-score; in experiment [8], -0.359 z-score and -0.354 z-score; in [9], -0.316 z-score; in experiment [10], -0.324 z-score and -0.295 z-score and -0.317 z-score; in [11], -0.343 z-score and -0.355 z-score; in [12], -0.326 z-score. Further, the binding signal in experiment [13] was -0.368 z-score; in experiment [14], -0.313 z-score; in experiment [15], -0.253 z-score; in experiment [16] it was -0.343 z-score; in experiment [17], -0.32 z-score; in experiment [18] it was -0.343 z-score. For the same sequence, the binding signal in experiment [19] is -0.355 z-score; in experiment [20] it was -0.346 z-score.
